In paper doi:10.1101/2022.03.03.482848 one finds binding data, which are given here for 10 molecules.

By UniProt entry, the sequences of proteins in these tests, tags left out.
UniProt Q969V5: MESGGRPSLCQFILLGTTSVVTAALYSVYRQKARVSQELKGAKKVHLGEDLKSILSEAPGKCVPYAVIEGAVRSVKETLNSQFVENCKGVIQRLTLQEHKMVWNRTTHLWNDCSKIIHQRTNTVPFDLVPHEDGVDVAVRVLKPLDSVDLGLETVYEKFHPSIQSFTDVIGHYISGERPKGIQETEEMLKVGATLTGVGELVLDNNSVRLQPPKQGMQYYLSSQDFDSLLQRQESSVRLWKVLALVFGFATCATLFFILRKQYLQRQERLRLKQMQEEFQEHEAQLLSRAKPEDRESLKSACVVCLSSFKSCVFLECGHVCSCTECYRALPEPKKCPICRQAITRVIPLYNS
UniProt Q70CQ3: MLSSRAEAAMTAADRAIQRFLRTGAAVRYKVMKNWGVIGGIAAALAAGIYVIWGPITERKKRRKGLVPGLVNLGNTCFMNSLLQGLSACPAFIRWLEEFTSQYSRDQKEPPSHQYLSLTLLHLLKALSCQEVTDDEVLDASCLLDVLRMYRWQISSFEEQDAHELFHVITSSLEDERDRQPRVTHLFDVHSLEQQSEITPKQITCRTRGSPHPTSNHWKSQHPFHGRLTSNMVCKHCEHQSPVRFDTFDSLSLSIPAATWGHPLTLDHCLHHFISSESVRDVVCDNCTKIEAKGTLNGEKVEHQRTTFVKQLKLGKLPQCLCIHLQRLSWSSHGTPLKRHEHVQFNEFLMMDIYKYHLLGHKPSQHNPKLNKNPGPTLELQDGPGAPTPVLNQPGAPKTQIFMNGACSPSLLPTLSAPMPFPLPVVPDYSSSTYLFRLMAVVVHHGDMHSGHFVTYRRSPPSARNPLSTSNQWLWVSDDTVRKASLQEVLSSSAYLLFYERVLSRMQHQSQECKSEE
UniProt Q07812: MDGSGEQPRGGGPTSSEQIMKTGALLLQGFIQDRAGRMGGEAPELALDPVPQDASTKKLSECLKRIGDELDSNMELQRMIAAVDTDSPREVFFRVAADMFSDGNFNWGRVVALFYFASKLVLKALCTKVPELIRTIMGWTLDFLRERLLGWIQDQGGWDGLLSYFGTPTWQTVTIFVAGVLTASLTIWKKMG
UniProt O00429: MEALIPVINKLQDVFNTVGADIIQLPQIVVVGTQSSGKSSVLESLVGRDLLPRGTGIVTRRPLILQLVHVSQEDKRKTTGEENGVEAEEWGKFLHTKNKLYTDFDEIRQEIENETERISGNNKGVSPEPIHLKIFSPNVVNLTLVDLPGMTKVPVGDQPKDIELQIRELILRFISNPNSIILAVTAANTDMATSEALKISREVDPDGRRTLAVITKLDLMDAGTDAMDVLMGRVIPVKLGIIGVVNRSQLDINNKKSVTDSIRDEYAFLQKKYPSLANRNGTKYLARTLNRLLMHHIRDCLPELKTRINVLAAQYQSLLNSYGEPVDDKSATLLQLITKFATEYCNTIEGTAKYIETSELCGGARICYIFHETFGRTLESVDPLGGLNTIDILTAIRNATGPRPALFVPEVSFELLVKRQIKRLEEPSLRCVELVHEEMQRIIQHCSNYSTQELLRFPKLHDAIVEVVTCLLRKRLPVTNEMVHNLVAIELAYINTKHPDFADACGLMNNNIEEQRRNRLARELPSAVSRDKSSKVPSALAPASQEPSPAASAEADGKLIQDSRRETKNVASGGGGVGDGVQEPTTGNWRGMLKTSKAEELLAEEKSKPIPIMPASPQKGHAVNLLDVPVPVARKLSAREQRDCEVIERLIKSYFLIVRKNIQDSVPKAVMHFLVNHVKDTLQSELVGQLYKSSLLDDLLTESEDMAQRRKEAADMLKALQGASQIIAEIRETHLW
UniProt Q27J81: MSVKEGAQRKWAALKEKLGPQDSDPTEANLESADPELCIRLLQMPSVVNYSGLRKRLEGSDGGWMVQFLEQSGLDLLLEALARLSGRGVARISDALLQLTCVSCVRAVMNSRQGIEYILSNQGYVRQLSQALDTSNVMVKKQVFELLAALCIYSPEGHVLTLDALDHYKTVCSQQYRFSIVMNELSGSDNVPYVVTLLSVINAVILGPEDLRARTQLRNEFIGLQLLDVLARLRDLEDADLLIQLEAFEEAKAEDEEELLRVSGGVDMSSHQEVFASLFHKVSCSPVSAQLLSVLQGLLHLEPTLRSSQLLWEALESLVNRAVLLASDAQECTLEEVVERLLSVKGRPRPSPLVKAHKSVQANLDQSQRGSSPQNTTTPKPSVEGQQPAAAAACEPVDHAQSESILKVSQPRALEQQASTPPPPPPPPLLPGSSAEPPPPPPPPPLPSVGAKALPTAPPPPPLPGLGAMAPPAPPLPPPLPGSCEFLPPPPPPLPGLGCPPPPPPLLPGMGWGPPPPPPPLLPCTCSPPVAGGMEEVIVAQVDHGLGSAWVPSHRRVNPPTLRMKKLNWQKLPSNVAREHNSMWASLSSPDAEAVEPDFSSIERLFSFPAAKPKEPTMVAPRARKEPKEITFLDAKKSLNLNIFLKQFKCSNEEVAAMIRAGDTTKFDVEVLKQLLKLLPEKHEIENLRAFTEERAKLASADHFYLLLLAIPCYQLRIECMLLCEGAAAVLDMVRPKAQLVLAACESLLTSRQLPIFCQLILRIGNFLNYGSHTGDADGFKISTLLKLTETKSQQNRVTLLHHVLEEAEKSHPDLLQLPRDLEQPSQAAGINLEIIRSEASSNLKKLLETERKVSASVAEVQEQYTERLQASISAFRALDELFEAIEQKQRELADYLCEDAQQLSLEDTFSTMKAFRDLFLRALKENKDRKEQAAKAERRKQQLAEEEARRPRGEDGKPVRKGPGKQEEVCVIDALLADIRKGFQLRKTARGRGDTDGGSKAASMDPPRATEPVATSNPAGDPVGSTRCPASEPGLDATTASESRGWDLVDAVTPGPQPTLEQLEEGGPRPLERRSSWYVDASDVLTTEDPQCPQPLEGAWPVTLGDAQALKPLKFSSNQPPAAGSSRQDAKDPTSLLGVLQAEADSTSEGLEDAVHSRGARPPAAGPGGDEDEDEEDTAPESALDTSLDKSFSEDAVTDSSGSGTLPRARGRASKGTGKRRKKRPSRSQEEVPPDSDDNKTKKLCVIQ
UniProt Q8IXI2: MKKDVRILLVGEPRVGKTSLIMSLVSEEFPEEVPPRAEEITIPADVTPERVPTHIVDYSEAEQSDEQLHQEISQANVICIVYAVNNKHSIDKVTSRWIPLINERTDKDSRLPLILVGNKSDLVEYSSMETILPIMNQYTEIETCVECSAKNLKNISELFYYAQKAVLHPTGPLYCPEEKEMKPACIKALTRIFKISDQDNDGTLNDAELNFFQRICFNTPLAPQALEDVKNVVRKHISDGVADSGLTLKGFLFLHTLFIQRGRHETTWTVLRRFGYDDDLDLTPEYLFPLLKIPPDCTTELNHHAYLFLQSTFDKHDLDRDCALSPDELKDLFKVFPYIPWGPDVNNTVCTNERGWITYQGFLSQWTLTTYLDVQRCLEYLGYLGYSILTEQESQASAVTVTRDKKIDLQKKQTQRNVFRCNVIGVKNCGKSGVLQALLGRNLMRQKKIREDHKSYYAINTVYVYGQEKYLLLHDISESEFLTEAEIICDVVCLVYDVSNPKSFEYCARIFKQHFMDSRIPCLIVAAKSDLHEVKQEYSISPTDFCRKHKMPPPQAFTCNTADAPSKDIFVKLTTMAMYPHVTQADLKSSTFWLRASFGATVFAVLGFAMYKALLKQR
UniProt Q16665: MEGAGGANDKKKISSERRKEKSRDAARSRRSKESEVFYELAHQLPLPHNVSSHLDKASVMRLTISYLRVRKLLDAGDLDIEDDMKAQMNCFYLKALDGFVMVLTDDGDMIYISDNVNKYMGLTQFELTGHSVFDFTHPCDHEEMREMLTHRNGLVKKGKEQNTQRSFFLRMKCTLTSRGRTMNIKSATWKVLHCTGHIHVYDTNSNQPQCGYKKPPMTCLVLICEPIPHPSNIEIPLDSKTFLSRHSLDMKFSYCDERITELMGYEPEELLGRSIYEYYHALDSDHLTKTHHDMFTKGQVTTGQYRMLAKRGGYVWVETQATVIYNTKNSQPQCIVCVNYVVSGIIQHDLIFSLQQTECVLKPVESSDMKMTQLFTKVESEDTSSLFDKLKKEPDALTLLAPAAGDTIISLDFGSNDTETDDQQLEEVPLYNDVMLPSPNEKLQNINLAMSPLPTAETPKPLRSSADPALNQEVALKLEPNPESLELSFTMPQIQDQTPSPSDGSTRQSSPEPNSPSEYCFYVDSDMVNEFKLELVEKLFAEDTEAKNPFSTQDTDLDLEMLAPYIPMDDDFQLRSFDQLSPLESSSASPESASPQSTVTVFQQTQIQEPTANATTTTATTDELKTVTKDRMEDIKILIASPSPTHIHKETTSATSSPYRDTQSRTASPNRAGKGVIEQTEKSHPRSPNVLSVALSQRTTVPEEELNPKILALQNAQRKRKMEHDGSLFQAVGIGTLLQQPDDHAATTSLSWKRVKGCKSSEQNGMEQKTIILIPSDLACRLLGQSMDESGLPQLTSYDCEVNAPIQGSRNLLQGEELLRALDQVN
UniProt P13861: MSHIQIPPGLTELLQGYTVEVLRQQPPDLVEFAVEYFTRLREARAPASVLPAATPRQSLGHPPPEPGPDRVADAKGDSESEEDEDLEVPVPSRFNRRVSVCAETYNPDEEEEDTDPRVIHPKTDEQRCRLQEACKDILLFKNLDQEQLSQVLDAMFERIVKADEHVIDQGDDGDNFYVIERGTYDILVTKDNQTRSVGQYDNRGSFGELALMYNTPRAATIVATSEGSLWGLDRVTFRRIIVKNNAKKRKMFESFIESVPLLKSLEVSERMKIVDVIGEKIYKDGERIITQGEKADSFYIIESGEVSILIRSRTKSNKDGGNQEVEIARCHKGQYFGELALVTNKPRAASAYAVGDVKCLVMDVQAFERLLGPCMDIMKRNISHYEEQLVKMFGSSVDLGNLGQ
UniProt Q7Z434: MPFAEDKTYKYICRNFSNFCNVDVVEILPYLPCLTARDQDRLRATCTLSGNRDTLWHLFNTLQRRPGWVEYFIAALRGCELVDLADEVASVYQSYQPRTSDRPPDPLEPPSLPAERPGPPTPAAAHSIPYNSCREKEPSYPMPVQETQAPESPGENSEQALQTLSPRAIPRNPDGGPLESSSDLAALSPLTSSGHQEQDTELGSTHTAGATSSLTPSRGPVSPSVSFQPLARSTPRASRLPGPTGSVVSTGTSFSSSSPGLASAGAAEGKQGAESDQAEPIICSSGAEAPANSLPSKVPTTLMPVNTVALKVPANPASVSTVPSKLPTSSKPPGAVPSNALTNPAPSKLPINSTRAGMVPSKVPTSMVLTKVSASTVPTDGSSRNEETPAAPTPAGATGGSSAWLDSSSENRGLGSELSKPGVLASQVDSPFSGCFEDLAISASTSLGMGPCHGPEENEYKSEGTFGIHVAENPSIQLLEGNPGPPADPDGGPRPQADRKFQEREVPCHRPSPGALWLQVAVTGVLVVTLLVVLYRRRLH

Read-outs that look alike come from different tables or passages of the source. No constants are given. Whether binding was seen depends on the method and setting. In cells and extracts the contact can be indirect. These calls come from enrichment with a bait or labelling near it, and not all partners need be listed. For some assays here: No binding means not detected with the bait.

Holding throughout (assay): proximity labelling
The target of experiment [1] is MAPL-BirA*Flag (full-length human MAPL fused to BirA* and Flag) (human) (UniProt Q969V5).
Experiment [2] has the same target. The source holds these as a separate data set.
Experiment [3] shares this target. The source holds these as a separate data set.

“USP30, a regulator of mitophagy and pexophagy (from UniProt Q70CQ3 1-517) (enzyme)”: in experiment [1], the binding entry is listed as “binds”.

On to BAX (from UniProt Q07812 1-192), for which the binding entry in experiment [1] is “binds weakly”.

As to “fission GTPase DRP1 (human, endogenous in HEK293) (from UniProt O00429 1-736)”, the binding entry in experiment [1] is listed as “binds”.

For “inverted formin INF2 (from UniProt Q27J81 1-1249)”, in experiment [1], the binding entry was “binds”.

Take MIRO1 (from UniProt Q8IXI2 1-618): the binding entry in experiment [1] is “binds weakly”.

As for HIF1α (from UniProt Q16665 1-826), the binding result in experiment [1] is “no binding”.

For “cAMP-dependent protein kinase type II-alpha regulatory subunit PRKAR2A (from UniProt P13861 1-404)”, the binding result in experiment [1] is “binds”.

As for “antiviral signaling protein MAVS (from UniProt Q7Z434 1-540)”, the binding result in experiment [1] was “binds”.

B1: ABCD3/PMP70, peroxisomal bile acid transporter (human, endogenous in HEK293) (protein, UniProt P28288 1-659)
chain: MAAFSKYLTARNSSLAGAAFLLLCLLHKRRRALGLHGKKSGKPPLQNNEKEGKKERAVVDKVFFSRLIQILKIMVPRTFCKETGYLVLIAVMLVSRTYCDVWMIQNGTLIESGIIGRSRKDFKRYLLNFIAAMPLISLVNNFLKYGLNELKLCFRVRLTKYLYEEYLQAFTYYKMGNLDNRIANPDQLLTQDVEKFCNSVVDLYSNLSKPFLDIVLYIFKLTSAIGAQGPASMMAYLVVSGLFLTRLRRPIGKMTITEQKYEGEYRYVNSRLITNSEEIAFYNGNKREKQTVHSVFRKLVEHLHNFILFRFSMGFIDSIIAKYLATVVGYLVVSRPFLDLSHPRHLKSTHSELLEDYYQSGRMLLRMSQALGRIVLAGREMTRLAGFTARITELMQVLKDLNHGKYERTMVSQQEKGIEGVQVIPLIPGAGEIIIADNIIKFDHVPLATPNGDVLIRDLNFEVRSGANVLICGPNGCGKSSLFRVLGELWPLFGGRLTKPERGKLFYVPQRPYMTLGTLRDQVIYPDGREDQKRKGISDLVLKEYLDNVQLGHILEREGGWDSVQDWMDVLSGGEKQRMAMARLFYHKPQFAILDECTSAVSVDVEGYIYSHCRKVGITLFTVSHRKSLWKHHEYYLHMDGRGNYEFKQITEDTVEFGS
Regarding B1, the binding result in experiment [2] and in experiment [3] was “binds” in each case.

B2: DRP1 receptor MFF (protein, UniProt Q9GZY8 1-342)
chain: MSKGTSSDTSLGRVSRAAFPSPTAAEMAEISRIQYEMEYTEGISQRMRVPEKLKVAPPNADLEQGFQEGVPNASVIMQVPERIVVAGNNEDVSFSRPADLDLIQSTPFKPLALKTPPRVLTLSERPLDFLDLERPPTTPQNEEIRAVGRLKRERSMSENAVRQNGQLVRNDSLWHRSDSAPRNKISRFQAPISAPEYTVTPSPQQARVCPPHMLPEDGANLSSARGILSLIQSSTRRAYQQILDVLDENRRPVLRGGSAAATSNPHHDNVRYGISNIDTTIEGTSDDLTVVDAASLRRQIIKLNRRLQLLEEENKERAKREMVMYSITVAFWLLNSWLWFRR
Consider B2, for which the binding entry in experiment [2] was “binds”.
